# Patent publication US9290788B2, “Device for determining or studying the state of stimulation of the natural defences of plants or portions of plants” (Institut National De La Recherche Agronomique, priority 2010, dated 2016)
# Some of these results come from one statement about several compounds together.
# Tested on: 28 target genes (defense genes) in apple tree leaves
# Assay: Test 1: relative expression of the 28 defense genes (qPCR, ΔΔCt) in apple tree seedling leaves subjected to NDS treatments and abiotic stresses
# Assay type: in vivo, apple tree seedlings (Golden Delicious)
# Conditions: often greater than; or log2(relative expression)>1.58
smiles,measurement,value
"CC/C=C\CC1C(=O)CCC1CC(=O)OC (stereo not shown) [MeJA, methyl jasmonate]","relative overexpression levels in relation to water of the gene combination PR-14, PAL, CHS, DFR, CSL, Pect, ACCO and EIN3",greater than 3
